No constants are given. Whether binding was seen depends on the method and setting. In cells and extracts the contact can be indirect. Some binding calls cover weakened binding; strength is not graded here. Tags and fused reporters may be left off the sequences shown.
Target: T1, Ste20^RICTOR-GFP (S. pombe) (UniProt Q09743)
T1 sequence: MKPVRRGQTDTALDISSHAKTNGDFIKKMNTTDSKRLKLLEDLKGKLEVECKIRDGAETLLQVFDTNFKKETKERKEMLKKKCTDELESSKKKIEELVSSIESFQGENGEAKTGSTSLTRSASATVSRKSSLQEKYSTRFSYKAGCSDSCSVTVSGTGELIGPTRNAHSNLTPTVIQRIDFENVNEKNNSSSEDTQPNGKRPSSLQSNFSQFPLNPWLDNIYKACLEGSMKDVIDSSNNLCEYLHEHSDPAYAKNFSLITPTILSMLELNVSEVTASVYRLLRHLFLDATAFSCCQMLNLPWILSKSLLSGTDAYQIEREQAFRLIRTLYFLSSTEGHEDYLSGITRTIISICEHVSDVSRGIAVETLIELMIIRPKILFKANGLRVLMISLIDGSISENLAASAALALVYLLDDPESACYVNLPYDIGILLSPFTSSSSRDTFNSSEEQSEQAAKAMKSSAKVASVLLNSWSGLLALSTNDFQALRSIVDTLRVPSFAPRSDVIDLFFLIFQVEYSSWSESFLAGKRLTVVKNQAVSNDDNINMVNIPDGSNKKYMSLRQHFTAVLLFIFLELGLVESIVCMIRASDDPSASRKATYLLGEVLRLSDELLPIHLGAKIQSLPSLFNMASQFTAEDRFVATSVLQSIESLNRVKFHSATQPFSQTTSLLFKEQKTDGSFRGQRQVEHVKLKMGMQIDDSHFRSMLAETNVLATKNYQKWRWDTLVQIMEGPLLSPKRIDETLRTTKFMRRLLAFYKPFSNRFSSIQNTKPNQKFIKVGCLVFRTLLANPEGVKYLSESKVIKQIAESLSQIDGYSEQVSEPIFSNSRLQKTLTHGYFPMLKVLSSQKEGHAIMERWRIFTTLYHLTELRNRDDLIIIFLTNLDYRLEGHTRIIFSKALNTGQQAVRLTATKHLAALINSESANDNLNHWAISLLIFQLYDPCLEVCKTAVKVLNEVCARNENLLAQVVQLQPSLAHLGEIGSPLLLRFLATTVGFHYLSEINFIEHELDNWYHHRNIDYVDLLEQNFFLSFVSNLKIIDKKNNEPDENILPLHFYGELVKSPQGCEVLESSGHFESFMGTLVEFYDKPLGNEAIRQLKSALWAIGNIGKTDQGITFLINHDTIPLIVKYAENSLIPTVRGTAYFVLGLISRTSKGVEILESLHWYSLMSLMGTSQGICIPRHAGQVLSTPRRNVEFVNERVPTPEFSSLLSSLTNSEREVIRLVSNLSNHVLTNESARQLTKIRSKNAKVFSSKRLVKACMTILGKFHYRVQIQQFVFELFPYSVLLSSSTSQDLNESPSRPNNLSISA
Assay: co-IP

binding: binds
B1: Gad8-HA (enzyme, UniProt Q9P7J8 1-569)
chain: MSWKLTKKLKETHLASAIGLNSGGSSFTRGLKNSTLSSTSSRKSSDEKSRKSSEDKRSPQSTVVQPGLLQVTIIEARNLKLPSGHVPANYGVSIDNSLLAPPLSNGSGHARSRSHAWWLPYIVVEFDKNEILVDALNTASLENPCWDYQATFDVSRYSKLSLNIYLRSSSSRSRNGMGNDAFLGGIKLSPSFIVNKLTDEWVPLHGGSGELRVQMLYKPNQSTPLTIDAFELLKVVGKGSFGKVMQVRKRDTSRIYALKTMKKAHIVSRSEVDHTLAERTVLAQVNNPFIVPLKFSFQSPGKLYLVLAFVNGGELFHHLQREGCFDTYRAKFYIAELLVALECLHEFNVIYRDLKPENILLDYTGHIALCDFGLCKLNMAKTDRTNTFCGTPEYLAPELLLGHGYTKVVDWWTLGVLLYEMITGLPPFYDENINEMYRKILQDPLRFPDNIDEKAKDLLSGLLTRAPEKRLGSGGAQEIKNHPFFDDIDWKKLCAKKIQPPFKPSVESAIDTSNFDSEFTSEIPMDSVVADSHLSETVQQRFANWSYQRPTTIDTSDDINTIAPGSVIR
